Data: paper PMC5382943

Tests used:
[1] = molecular target: endogenous β-tubulin (human (endogenous in SHSY5Y)); test: co-IP; whole protein extracts of doxycycline-induced SHSY5Y clones incubated with antibodies against β-tubulin or α-tubulin to precipitate the endogenous tubulin; western blot with anti-Flag
[2] = molecular target: endogenous α-tubulin (human (endogenous in SHSY5Y)); test: as above

B1: Flag-tagged full-length wild-type PRUNE (protein, UniProt Q86TP1-1 1-453)
chain: MEDYLQGCRAALQESRPLHVVLGNEACDLDSTVSALALAFYLAKTTEAEEVFVPVLNIKRSELPLRGDIVFFLQKVHIPESILIFRDEIDLHALYQAGQLTLILVDHHILSKSDTALEEAVAEVLDHRPIEPKHCPPCHVSVELVGSCATLVTERILQGAPEILDRQTAALLHGTIILDCVNMDLKIGKATPKDSKYVEKLEALFPDLPKRNDIFDSLQKAKFDVSGLTTEQMLRKDQKTIYRQGVKVAISAIYMDLEAFLQRSNLLADLHAFCQAHSYDVLVAMTIFFNTHNEPVRQLAIFCPHVALQTTICEVLERSHSPPLKLTPASSTHPNLHAYLQGNTQVSRKKLLPLLQEALSAYFDSMKIPSGQPETADVSREQVDKELDRASNSLISGLSQDEEDPPLPPTPMNSLVDECPLDQGLPKLSAEAVFEKCSQISLSQSTTASLSKK
B1 was tested, and the binding [1] was “binds” and the binding [2] was “binds”.

No constants are given. Whether binding was seen depends on the method and setting. In cells and extracts the contact can be indirect. Binding calls can cover weak binding; strength is not graded here. Tags and fused reporters may be left off the sequences shown.
